PMC4639748

By UniProt entry, the sequences of proteins in these tests, tags left out. Where a name states a change or a piece, a line headed by the entry shows the natural chain unless it says otherwise.
UniProt D3ZXM0: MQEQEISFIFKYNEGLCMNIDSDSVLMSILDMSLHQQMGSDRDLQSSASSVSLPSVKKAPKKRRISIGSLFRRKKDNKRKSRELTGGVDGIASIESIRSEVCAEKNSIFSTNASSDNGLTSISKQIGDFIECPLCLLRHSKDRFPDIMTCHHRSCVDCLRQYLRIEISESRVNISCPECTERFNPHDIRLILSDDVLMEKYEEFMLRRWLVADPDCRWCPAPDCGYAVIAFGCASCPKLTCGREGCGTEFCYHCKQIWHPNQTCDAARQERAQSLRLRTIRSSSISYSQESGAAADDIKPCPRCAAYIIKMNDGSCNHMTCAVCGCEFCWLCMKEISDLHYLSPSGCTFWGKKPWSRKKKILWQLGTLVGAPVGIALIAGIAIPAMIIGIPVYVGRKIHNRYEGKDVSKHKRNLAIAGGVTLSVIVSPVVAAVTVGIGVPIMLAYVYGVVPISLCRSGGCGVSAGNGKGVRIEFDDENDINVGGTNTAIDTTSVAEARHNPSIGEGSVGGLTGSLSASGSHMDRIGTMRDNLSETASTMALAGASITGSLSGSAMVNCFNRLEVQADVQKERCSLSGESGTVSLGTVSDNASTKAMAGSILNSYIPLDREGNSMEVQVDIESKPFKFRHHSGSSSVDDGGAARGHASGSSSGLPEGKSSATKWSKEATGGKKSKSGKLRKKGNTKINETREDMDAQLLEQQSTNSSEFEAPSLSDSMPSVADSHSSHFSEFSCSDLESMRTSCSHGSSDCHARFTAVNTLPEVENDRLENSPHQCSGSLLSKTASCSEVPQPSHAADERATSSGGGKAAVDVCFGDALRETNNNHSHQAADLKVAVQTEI
UniProt P50636: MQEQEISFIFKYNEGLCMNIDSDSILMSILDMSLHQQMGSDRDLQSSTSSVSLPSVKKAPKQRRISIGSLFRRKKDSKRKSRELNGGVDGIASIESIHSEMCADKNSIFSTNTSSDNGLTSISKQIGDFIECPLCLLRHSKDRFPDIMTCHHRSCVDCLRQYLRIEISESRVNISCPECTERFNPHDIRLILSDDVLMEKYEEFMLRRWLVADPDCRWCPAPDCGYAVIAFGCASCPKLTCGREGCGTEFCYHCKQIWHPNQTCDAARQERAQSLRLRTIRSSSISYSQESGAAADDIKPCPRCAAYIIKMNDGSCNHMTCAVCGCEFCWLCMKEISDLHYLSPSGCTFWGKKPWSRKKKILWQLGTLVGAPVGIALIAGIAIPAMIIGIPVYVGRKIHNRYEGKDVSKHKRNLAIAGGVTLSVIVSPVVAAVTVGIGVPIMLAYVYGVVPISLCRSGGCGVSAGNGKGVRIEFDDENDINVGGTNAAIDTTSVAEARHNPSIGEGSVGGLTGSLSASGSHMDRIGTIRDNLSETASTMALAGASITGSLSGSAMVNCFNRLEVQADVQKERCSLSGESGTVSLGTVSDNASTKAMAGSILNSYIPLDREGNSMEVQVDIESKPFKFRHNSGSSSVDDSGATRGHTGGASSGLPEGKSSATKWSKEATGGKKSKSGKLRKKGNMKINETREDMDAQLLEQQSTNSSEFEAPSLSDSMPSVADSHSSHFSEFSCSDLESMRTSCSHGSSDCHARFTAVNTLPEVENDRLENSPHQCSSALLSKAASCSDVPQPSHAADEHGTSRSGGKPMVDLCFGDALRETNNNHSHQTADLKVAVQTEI
UniProt P0C0S6: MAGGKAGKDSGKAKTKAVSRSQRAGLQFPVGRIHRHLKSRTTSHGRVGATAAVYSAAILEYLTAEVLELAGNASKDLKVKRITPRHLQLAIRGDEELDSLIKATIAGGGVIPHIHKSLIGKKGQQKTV
UniProt Q62696: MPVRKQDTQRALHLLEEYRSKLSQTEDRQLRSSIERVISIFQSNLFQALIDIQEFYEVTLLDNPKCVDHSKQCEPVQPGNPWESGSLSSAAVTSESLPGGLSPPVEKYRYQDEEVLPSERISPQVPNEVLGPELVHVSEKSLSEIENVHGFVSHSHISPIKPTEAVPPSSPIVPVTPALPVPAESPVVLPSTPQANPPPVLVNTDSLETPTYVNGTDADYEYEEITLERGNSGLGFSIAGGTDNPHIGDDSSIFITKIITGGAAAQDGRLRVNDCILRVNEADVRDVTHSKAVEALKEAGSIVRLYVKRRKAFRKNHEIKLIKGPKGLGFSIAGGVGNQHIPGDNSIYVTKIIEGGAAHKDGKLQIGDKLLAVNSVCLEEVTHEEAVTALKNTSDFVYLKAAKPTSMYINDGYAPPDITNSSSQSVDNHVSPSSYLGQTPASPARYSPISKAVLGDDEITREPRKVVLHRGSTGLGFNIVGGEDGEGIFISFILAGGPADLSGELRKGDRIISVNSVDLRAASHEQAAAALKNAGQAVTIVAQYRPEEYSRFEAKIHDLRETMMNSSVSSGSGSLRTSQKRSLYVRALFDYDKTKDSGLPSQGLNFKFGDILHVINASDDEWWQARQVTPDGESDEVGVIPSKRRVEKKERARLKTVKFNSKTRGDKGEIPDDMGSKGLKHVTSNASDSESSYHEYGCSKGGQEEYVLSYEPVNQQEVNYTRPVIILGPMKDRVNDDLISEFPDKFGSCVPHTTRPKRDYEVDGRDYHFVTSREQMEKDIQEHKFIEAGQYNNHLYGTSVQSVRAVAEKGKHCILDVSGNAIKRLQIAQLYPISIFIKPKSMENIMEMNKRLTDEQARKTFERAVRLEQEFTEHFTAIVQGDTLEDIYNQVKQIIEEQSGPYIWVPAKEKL
UniProt P62140: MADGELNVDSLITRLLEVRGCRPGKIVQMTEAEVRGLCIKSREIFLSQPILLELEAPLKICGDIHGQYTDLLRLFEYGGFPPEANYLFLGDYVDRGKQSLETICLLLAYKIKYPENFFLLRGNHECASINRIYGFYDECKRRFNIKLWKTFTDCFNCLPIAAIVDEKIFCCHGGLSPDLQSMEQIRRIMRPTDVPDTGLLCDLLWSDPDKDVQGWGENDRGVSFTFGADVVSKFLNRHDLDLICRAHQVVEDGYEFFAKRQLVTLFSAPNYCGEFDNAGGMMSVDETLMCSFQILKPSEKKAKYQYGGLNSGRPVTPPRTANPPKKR
UniProt P62136: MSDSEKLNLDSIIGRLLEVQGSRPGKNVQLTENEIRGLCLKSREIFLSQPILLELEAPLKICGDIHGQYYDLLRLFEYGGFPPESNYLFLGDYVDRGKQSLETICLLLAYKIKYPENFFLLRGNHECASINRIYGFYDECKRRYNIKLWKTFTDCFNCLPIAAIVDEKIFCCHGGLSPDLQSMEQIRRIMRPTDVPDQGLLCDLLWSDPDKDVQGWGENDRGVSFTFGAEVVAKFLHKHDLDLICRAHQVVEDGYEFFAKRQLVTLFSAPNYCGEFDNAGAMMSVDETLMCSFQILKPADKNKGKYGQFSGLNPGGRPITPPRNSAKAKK

B1: neurofilament M (full-length pEGFP-mNFM) (protein, UniProt P08553 1-848)
chain: MSYTLDSLGNPSAYRRVTETRSSFSRVSGSPSSGFRSQSWSRGSPSTVSSSYKRSALAPRLAYSSAMLSSAESSLDFSQSSSLLNGGSGGDYKLSRSNEKEQLQGLNDRFAGYIEKVHYLEQQNKEIEAEIQALRQKQASHAQLGDAYDQEIRELRATLEMVNHEKAQVQLDSDHLEEDIHRLKERFEEEARLRDDTEAAIRALRKDIEESSMVKVELDKKVQSLQDEVAFLRSNHEEEVADLLAQIQASHITVERKDYLKTDISTALKEIRSQLECHSDQNMHQAEEWFKCRYAKLTEAAEQNKEAIRSAKEEIAEYRRQLQSKSIELESVRGTKESLERQLSDIEERHNHDLSSYQDTIQQLENELRGTKWEMARHLREYQDLLNVKMALDIEIAAYRKLLEGEETRFSTFSGSITGPLYTHRQPSVTISSKIQKTKVEAPKLKVQHKFVEEIIEETKVEDEKSEMEETLTAIAEELAASAKEEKEEAEEKEEEPEAEKSPVKSPEAKEEEEEGEKEEEEEGQEEEEEEDEGVKSDQAEEGGSEKEGSSEKDEGEQEEEEGETEAEGEGEEAEAKEEKKIEGKVEEVAVKEEIKVEKPEKAKSPMPKSPVEEVKPKPEAKAGKGEQKEEEKVEEEKKEVTKESPKEEKVEKKEEKPKDVADKKKAESPVKEKAVEEVITISKSVKVSLEKDTKEEKPQPQEKVKEKAEEEGGSEEEGSDRSPQESKKEDIAINGEVEGKEEEEQETQEKGSGREEEKGVVTNGLDVSPAEEKKGEDSSDDKVVVTKKVEKITSEGGDGATKYITKSVTVTQKVEEHEETFEEKLVSTKKVEKVTSHAIVKEVTQGD

What was measured:
[1] = target: Myc-Dorfin (full-length rat Dorfin) (rat) (UniProt D3ZXM0); assay: co-IP; HEK293 cells doubly expressing Myc-Dorfin and the indicated proteins; immunoprecipitated and immunoblotted with Myc or EGFP antibodies
[2] = target: T1, Dorfin (aa 834–840; wild type) in pBHA (mouse) (UniProt P50636); assay: two-hybrid; Dorfin aa 834–840 (WT or I840A) in pBHA (bait vector), PDZ domains in pGAD10 (prey vector); β-galactosidase and HIS3 activity
T1 sequence: VAVQTEI

[3] = target: Flag-Dorfin (full length; WT) (rat) (UniProt D3ZXM0); assay: co-IP; HEK293T cells doubly transfected with Flag-Dorfin (WT or Δ3) and PSD-95 or SAP97; immunoprecipitated with Flag antibodies, immunoblotted

| Molecule | binding [1] | other results |
| --- | --- | --- |
| histone H2A.Z (pEGFP-H2Afz) (from UniProt P0C0S6 1-128) | binds |  |
| PDZ domains of S-SCAM in pGAD10 (domain or fragment) |  | binding [2]: no binding |
| EGFP-SAP97 (full length) (from UniProt Q62696 1-911) |  | binding [3]: binds |
| PP1-β catalytic subunit (full-length pEGFP-PP1β) (from UniProt P62140 1-327) (enzyme) | binds |  |
| PP1-α catalytic subunit (full-length pEGFP-PP1α) (from UniProt P62136 1-330) (enzyme) | binds |  |
| B1 | binds |  |

Results are given in words; binding and its absence hold for the method and conditions named. For part of these data: Binding seen in cells or lysates may run through a third protein. For part of these data: Binding calls can cover weak binding; strength is not graded here. For part of these data: Sequences can lack the tags named with a protein.
